Test results published in PubChem BioAssay AID445 (National Center for Advancing Translational Sciences (NCATS), 2006).
The list shows a part of the results. Shown are side measurements of this screen, not its main read-out; they come without a call. Compounds called inactive in the main read-out are mostly missing here. Potencies come from curve fits of mixed quality, noted in brackets.

Test: IkB Signaling
Conditions: ABC-DLBCL IkBa-CBG/CBR dual luciferase ratio (green luciferase fused to IkBa over red control in OCI-Ly3 lymphoma cells), 4 h
Outline: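 Curves were fitted separately to fusion (green), unfused (red) and ratio luminescence, then classed by r2, magnitude and activity. Cells: OCI-Ly3, 4 h compound plus doxycycline at 37C; 10 uM MG-132 defined full response.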

[1] = measured here: control luc red channel unless noted
[2] = measured here: IkB-luc green channel
[3] = measured here: control luc red channel

SMILES: O=C(Cn1c(=O)n(Cc2ccc(C(=O)NCc3ccccc3Cl)cc2)c(=O)c2ccccc21)Nc1ccc(F)cc1
- AC50 [1]: 1 µM [falling, full curve]

SMILES: CCN(CC)S(=O)(=O)c1ccc2c(c1)N(CC(=O)Nc1ccc(F)cc1F)C(=O)C1CCCN21 (stereo not given)
- AC50 [1]: 12.6 µM [falling, partial curve]

SMILES: Cc1ccc(CNc2ccc(-c3nc(-c4cccnc4)no3)cc2[N+](=O)[O-])cc1
- AC50 [1]: 2.51 µM [falling, full curve]

SMILES: CCn1cc(C(=O)NCCc2ccc(Cl)cc2)c(=O)c2cc(S(=O)(=O)N3CCOCC3)ccc21
- AC50 [1]: 3.98 µM [rising, partial curve]

SMILES: COc1ccc(OCC(=O)N2CCN(c3cccc(C(F)(F)F)c3)CC2)cc1
- AC50 [1]: 31.6 µM [falling, single point]

SMILES: Oc1cccc(-c2nc3ncccn3c2Nc2cccc(C(F)(F)F)c2)c1
- AC50 [1]: 12.6 µM [falling, partial curve]

SMILES: CCOc1ccccc1NC(=O)c1ccc2oc(=O)c(S(=O)(=O)c3ccc(F)cc3)cc2c1
- AC50 [2]: 5.01 µM [rising, single point]
- AC50 [3]: 10 µM [falling, partial curve]

SMILES: Cc1nn(-c2ccccc2)c(C)c1C(=O)OC/C(O)=C(\C#N)c1nc2ccccc2[nH]1
- AC50 [1]: 15.8 µM [falling, partial curve]

SMILES: CN(C(=O)CSc1nc2ccc(NC(=O)c3ccc(F)cc3)cc2s1)c1ccccc1
- AC50 [1]: 10 µM [falling, partial curve]

SMILES: COc1ccc(NC(=O)CCS(=O)(=O)c2cc(Br)cc3c2N(C(C)=O)CC3)c(OC)c1
- AC50 [1]: 15.8 µM [rising, partial curve, poor fit]

SMILES: O=c1c(-c2ccc(O)cc2)coc2cc(O)cc(O)c12
- AC50 [2]: 0.002 µM [falling, full curve, poor fit]
- AC50 [3]: 39.8 µM [falling, single point]

SMILES: Cc1ccccc1CCNC(=O)c1cc2ccccn2n1
- AC50 [1]: 20 µM [falling, partial curve]

SMILES: CCOC(=O)Nc1ccc2c(c1)N(C(=O)CCN1CCOCC1)c1ccccc1S2
- AC50 [1]: 0.794 µM [rising, full curve]

SMILES: Cc1cccc(N2CCN(C(=O)Cn3nc(C)c4sc5ccccc5c4c3=O)CC2C)c1 (stereo not given)
- AC50 [1]: 6.31 µM [rising, full curve, poor fit]

SMILES: COc1ccc(-c2onc(C)c2C)cc1S(=O)(=O)NC1CCCCC1
- AC50 [1]: 12.6 µM [falling, single point]

SMILES: O=C(Nc1cccc(C(=O)OCc2cc(=O)n3nc(C4CC4)sc3n2)c1)c1ccc(F)cc1
- AC50 [1]: 0.316 µM [falling, full curve]

SMILES: CCOc1ccc(N(CC(=O)Nc2cccc(OC)c2)S(=O)(=O)c2c(C)noc2C)cc1
- AC50 [1]: 7.94 µM [falling, partial curve]

SMILES: CCc1ccc(NC(=O)CN2C(=O)C(=O)c3ccccc32)cc1
- AC50 [1]: 25.1 µM [falling, partial curve]

SMILES: COc1ccc(S(=O)(=O)Nc2ccc(O)c(Sc3nc4ccccc4s3)c2)cc1
- AC50 [1]: 39.8 µM [falling, single point]

SMILES: CCCc1[nH]n(-c2nc3ccccc3s2)c(=O)c1C=NCC1CCCO1 (stereo not given)
- AC50 [1]: 15.8 µM [falling, partial curve]

SMILES: Cn1c(CNc2ccc(Cl)cc2)nc2ccccc21
- AC50 [1]: 15.8 µM [falling, single point]

SMILES: COc1cccc2[nH]c3c(N4CCN(Cc5ccc6c(c5)OCO6)CC4)ncnc3c12
- AC50 [1]: 31.6 µM [falling, partial curve]

SMILES: CCOCCCn1c(=N)c(S(=O)(=O)c2ccccc2)cc2c(=O)n3cc(C)ccc3nc21
- AC50 [1]: 2.51 µM [rising, partial curve]

SMILES: Cc1ccc(-n2nc(C)c3c(C)c(CCC(=O)NCc4cccc(Cl)c4)c(C)nc32)cc1C
- AC50 [1]: 15.8 µM [falling, partial curve]

SMILES: Cc1cccc(C(=O)Nc2cc3c(cc2N2CCCCC2)n(C)c(=O)n3C)c1
- AC50 [1]: 12.6 µM [falling, partial curve, poor fit]

SMILES: O=C(CSc1c2c(nc3ccc(Cl)cc13)CCCC2)N1CCCCC1
- AC50 [1]: 15.8 µM [falling, partial curve]

SMILES: COc1ccc(C(=O)Oc2c(Sc3ccc(C)cc3)c(C)nn2C(C)(C)C)c(OC)c1
- AC50 [1]: 6.31 µM [falling, partial curve]

SMILES: O=C(NCc1cccnc1)c1ccc(COc2ccc3c(c2)CCC3)o1
- AC50 [1]: 10 µM [falling, partial curve]

SMILES: C=Cc1ccc(Cn2c(C(=O)O)c(CNCc3cc(OC)ccc3OC)c3ccc(C)cc32)cc1
- AC50 [1]: 25.1 µM [falling, single point]

SMILES: CCC12CN3CC(C)(CN(C1)C3c1c(C)[nH]c3ccccc13)C2=O (stereo not given)
- AC50 [1]: 25.1 µM [falling, single point]

SMILES: CCOC(=O)c1cc2c(ccn2C)n1CC(=O)N1CCC(Cc2ccccc2)CC1
- AC50 [1]: 25.1 µM [falling, partial curve]

SMILES: COC(=O)C1=C(c2ccccc2)c2ccccc2S(=O)(=O)N1CC(=O)Nc1cc(C)ccc1C
- AC50 [1]: 25.1 µM [falling, single point]

SMILES: CCOC(=O)c1cccc(NC(=O)CCc2c(C)nc3c4cccnc4nn3c2C)c1
- AC50 [1]: 39.8 µM [falling, single point]

SMILES: COc1ccccc1CN(Cc1cc2c(C)ccc(C)c2[nH]c1=O)Cc1nnnn1Cc1ccco1
- AC50 [1]: 10 µM [falling, partial curve]

SMILES: CSc1ccc(Nc2nn(-c3ccc(OC(F)(F)F)cc3)nc2C(C)=O)cc1
- AC50 [1]: 20 µM [falling, single point]

SMILES: Cc1ccc2c(c1)N(CC(=O)NCc1cccc(Cl)c1)C(=O)c1cccnc1O2
- AC50 [1]: 25.1 µM [falling, partial curve]

SMILES: COc1ccccc1Cn1c(CNS(=O)(=O)c2c(C)cc(C)cc2C)nc2cccnc21
- AC50 [1]: 39.8 µM [falling, single point]

SMILES: Cc1cc(Nc2cccc(Cl)c2C)n2nc(Cc3ccccc3)nc2n1
- AC50 [1]: 25.1 µM [falling, single point]

SMILES: Cc1nn(-c2ccccc2)c(Cl)c1C(=O)N1CCN(c2ncnc3c2cnn3-c2ccccc2)CC1
- AC50 [1]: 3.16 µM [falling, full curve]

SMILES: O=C(NC1CC1)c1ccc(-c2nc3ccccc3s2)s1
- AC50 [1]: 20 µM [falling, single point]

SMILES: COc1cc(CN(CC2CCCO2)C(=O)c2ccccc2F)cc(OC)c1OC (stereo not given)
- AC50 [1]: 15.8 µM [falling, single point]

SMILES: Cc1cc(C)c(NC(=O)Cn2c(=O)n(CCCCC(=O)NCc3ccccc3Cl)c(=O)c3ccccc32)c(C)c1
- AC50 [2]: 31.6 µM [rising, single point]
- AC50 [3]: 7.94 µM [rising, partial curve]

SMILES: CCn1c(=O)cc(OCC(=O)N2CCN(c3cccc(C(F)(F)F)c3)CC2)c2ccccc21
- AC50 [1]: 10 µM [falling, partial curve]

SMILES: Cc1nc2sc(C(=O)NCc3ccc(Cl)cc3)c(NC(=O)c3ccccc3)c2c(C)c1C
- AC50 [1]: 20 µM [rising, partial curve, poor fit]

SMILES: Cc1ccccc1NC(=O)c1nc(-c2ccncc2)no1
- AC50 [1]: 2 µM [falling, full curve]

SMILES: CCC(C(=O)OCc1cc(=O)n2nc(CCOC)sc2n1)c1ccccc1 (stereo not given)
- AC50 [1]: 10 µM [falling, partial curve]

SMILES: Cc1ccc(-c2cn3c(n2)sc2cc(C(=O)N4CCCCC4)ccc23)cc1
- AC50 [1]: 10 µM [falling, partial curve]

SMILES: Cc1cc(C)c2c(=O)cc(C(=O)Nc3ccc(S(=O)(=O)Nc4nc(C)cc(C)n4)cc3)oc2c1
- AC50 [1]: 39.8 µM [falling, single point]

SMILES: O=C(O)CCc1ccc(-c2cccs2)n1-c1ccc(C(=O)O)cc1
- AC50 [1]: 10 µM [falling, partial curve]

SMILES: CCOc1ccc(NC(=O)N2CCOc3ccccc32)cc1
- AC50 [1]: 3.98 µM [falling, full curve]

SMILES: O=C(C1CCN(S(=O)(=O)c2ccc(F)cc2)CC1)N1CC=C(c2ccccc2)CC1
- AC50 [1]: 25.1 µM [falling, partial curve]

SMILES: Cc1ccnc(NC(c2ccccc2F)c2ccc3cccnc3c2O)c1 (stereo not given)
- AC50 [1]: 5.01 µM [falling, full curve]

SMILES: CCCOc1ccccc1Cn1c(=O)sc2ccccc21
- AC50 [1]: 25.1 µM [falling, single point]

SMILES: COc1ccc(NC(=O)c2cc(C(C)C)on2)cc1OC
- AC50 [1]: 10 µM [falling, partial curve]

SMILES: Cc1ccc(N2CCn3c2nc2c3c(=O)n(CCc3ccccc3)c(=O)n2C)cc1C
- AC50 [1]: 20 µM [falling, partial curve]

SMILES: Cc1cc(C(=O)CSc2nncs2)c(C)n1-c1ccc2c(c1)OCO2
- AC50 [1]: 25.1 µM [falling, single point]

SMILES: CCOc1ccc(NC(=O)CN2C(=O)COc3ccc(S(=O)(=O)Nc4ccccc4)cc32)cc1
- AC50 [1]: 31.6 µM [falling, partial curve, poor fit]

SMILES: Cc1ccc(C(=O)c2coc3ccc(OCC(=O)O)cc23)cc1
- AC50 [1]: 15.8 µM [falling, partial curve]

SMILES: COc1ccccc1NC(=O)CSc1nnnn1-c1ccc2c(c1)OCO2
- AC50 [1]: 25.1 µM [falling, partial curve]

SMILES: COc1ccc(Cl)c(Cn2c(NCCN)nc3c2c(=O)n(C)c(=O)n3C)c1
- AC50 [1]: 0.1 µM [rising, full curve, poor fit]

SMILES: Cn1cc(S(=O)(=O)Nc2ccc(Br)cc2F)c(=O)n(C)c1=O
- AC50 [2]: 25.1 µM [falling, partial curve, poor fit]
- AC50 [3]: 12.6 µM [falling, partial curve]
